Reference: PubChem BioAssay AID1508600 (Functional Genomics Laboratory (NCATS/FGL), 2020)
In all, about 53,000 sequences went through this assay and about 3,700 (7%) were called active.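 How the source made its calls: active means gene knockdowns whose robust z-score for IL-1 alpha signal is at least 2 or at most -2, so actives lie on both sides; inactive means the rest.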 This is one part of the list.

Assay: Components of the Cytosolic LPS Sensing Pathway: Gene Identification via Genome-wide siRNA Screen;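 further: robust z of the log signal after scaling to non-targeting control siRNA wells of the plate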
Details: RAW264.7 macrophages, IL-1a HTRF, actives lie on both sides, screened at 100 nM (by protocol), cells primed 5 h with Pam3CSK4 first
Method in brief: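 RAW264.7; siRNA 100 nM final, RNAiMAX, 48h 37 degrees C; Pam3CSK4 5 h; LipidA + TransIT-TKO 24 h; IL-1a HTRF; CellTiter-Glo viability; robust z vs negative-control median.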
With GCAUCAUUAGUGGUGUAACTT against Aph1a the z-score was inactive: -0.401. In the case of CGCCUACUGCUUCAGGAUATT against Cgrrf1, the z-score is reported as inactive: 1.27. With CCACCUUCGGUUCAACUAUTT against Gal3st2 the z-score was inactive: 1.95. For GGAGUUAAUCAAAGCUUUGTT against Rprd1b, the z-score was inactive: 1.01. For GGUGGGCUACGAACUAAAGTT against Prpf31, the z-score was inactive: 0.664. With GGAGAUCCACUUCCUCAAGTT against B3gnt7 the z-score was inactive: -0.386. For GGAUGAAAUGGAAGAAAAUTT against Barx1, the z-score was inactive: -0.564. With GACUAGGACACUGACCCUCTT against Ifna12 the z-score was inactive: -0.0354. For CCACCUACCAAAGCAGAAGTT against Cep112, the z-score was inactive: -1.71. With GGAUUACCUAAAUUUAGGATT against Hfm1 the z-score was inactive: 0.14. With GCACAGAAAUAUUAAAGUCTT against Foxp4 the z-score was inactive: -1.7. With AAAGUAAGAGACUACGCUCTT against H2-Q2 the z-score was inactive: 1.89. With GGGAGAAGGUAAGUGCAUGTT against Golga7b the z-score was inactive: -0.343. In the case of GGCAAAUAUAUCCUCUUUGTT against Gpx3, the z-score is reported as inactive: 0.213. In the case of GAUGCUAUCUGGCUUUCUUTT against Olfr981, the z-score is reported as inactive: -0.889. In the case of GGAAGACUGGGAAUAUAUCTT against Gga3, the z-score is reported as inactive: -1.69. With GCCUCGUGUUGAAUCUUAATT against Pmp22 the z-score was inactive: 0.411. In the case of GCCCAAAAAAGCUCAGAGUTT against Brcc3, the z-score is reported as inactive: -0.351. For CCGGGCAAUUCAGCUGAACTT against Igsf3, the z-score was inactive: -0.872. With GUACUUUCCGCUGUUCCUCTT against Ltc4s the z-score was inactive: -0.736. With GCGAAGUUCCUGAGAUGGATT against Irf8 the z-score was inactive: 0.342. For CCUGGAGUACAUAAAAGAUTT against Sh2d1a, the z-score was inactive: 0.0604. In the case of CCCACAGUGCAAAAAUGACTT against Olfr663, the z-score is reported as active: -2.26. In the case of GGCUUGUUCCUGUUCCUCUTT against Ndufc2, the z-score is reported as inactive: -0.716. For GGUGGUAACCAAUCAUUACTT against Cd200r1, the z-score was inactive: -0.296. In the case of CCUUUGUUACCACCACCAUTT against Olfr1331, the z-score is reported as inactive: 1.46. In the case of GGAAAUCAAGGAGCAGGAATT against S100b, the z-score is reported as inactive: 0.418. In the case of GCUGAGCAUCCAGUGUAGUTT against A3galt2, the z-score is reported as inactive: 0.144. For GGUUUGAAGAUGAUGCCUCTT against Nfkbil1, the z-score was inactive: -0.848.
